Laboratory results taken from patent US20110117093A1 (published 2011).
No constants are given. Whether binding was seen depends on the method and setting. Some binding calls cover weakened binding; strength is not graded here.

By UniProt entry, the sequences of proteins in these tests, tags left out. Where a name states a change or a piece, a line headed by the entry shows the natural chain unless it says otherwise.
UniProt Q9Y275: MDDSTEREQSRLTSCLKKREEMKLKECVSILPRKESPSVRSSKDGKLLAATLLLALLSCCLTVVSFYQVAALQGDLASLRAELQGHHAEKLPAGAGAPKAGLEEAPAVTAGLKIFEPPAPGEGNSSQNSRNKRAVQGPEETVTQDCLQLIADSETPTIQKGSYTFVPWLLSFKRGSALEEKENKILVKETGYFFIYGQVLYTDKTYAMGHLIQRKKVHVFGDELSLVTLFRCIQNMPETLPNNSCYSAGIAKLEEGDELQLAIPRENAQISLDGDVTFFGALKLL

Tests used:
phage ELISA = substrate: B Lymphocyte Stimulator, human, soluble form (human) (UniProt Q9Y275); test: phage ELISA
[1] = target: biotinylated B Lymphocyte Stimulator (soluble form) (human) (UniProt Q9Y275); test: phage scFv, IM9 receptor binding inhibition
[2] = target: biotinylated B Lymphocyte Stimulator (soluble form) (human) (UniProt Q9Y275); test: purified scFv, IM9 receptor binding inhibition

binding (phage ELISA): binds
binding [1]: binds
binding [2]: binds
B1: I067B10 (scFv)
scFv: QMQLVQSGAEVKKPGASVKVSCKASGYTFTSYYMHWVRQAPGQGLEWMGWINAGNSNTKYSQKFQGRVTITSDTSASTAYMELSGLRSEDTAVYYCARDRGAPNYDILTGYYAPAQGVAFDIWGKGTLATVSSGGGGSGGGGSGGGGSQSVLTQPPSVSAAPGQKVTISCSGSTSNIGNNYVSWYQQHPGKAPKLMIYDVSKRPSGVPDRFSGSKSGNSASLDISGLQSEDEADYYCAAWDDSLSEFLFGTGTKLTVLG
